Earlier results on one compound are cited in US12187997B2, “Integrated human organ-on-chip microphysiological systems” (President and Fellows of Harvard College, priority 2011, dated 2025).

The structures appear in SMILES notation.

The conditions of the data set: Table 1.

In the case of `CCCCc1oc2ccccc2c1C(=O)c1cc(I)c(OCCN(CC)CC)c(I)c1` [Amiodarone], the “Organ Toxicity” value is given as “Lung, liver”.
